# Experimental data taken from PMC7363799.
# By UniProt entry, the sequences of proteins in these tests, tags left out.
# UniProt Q92736: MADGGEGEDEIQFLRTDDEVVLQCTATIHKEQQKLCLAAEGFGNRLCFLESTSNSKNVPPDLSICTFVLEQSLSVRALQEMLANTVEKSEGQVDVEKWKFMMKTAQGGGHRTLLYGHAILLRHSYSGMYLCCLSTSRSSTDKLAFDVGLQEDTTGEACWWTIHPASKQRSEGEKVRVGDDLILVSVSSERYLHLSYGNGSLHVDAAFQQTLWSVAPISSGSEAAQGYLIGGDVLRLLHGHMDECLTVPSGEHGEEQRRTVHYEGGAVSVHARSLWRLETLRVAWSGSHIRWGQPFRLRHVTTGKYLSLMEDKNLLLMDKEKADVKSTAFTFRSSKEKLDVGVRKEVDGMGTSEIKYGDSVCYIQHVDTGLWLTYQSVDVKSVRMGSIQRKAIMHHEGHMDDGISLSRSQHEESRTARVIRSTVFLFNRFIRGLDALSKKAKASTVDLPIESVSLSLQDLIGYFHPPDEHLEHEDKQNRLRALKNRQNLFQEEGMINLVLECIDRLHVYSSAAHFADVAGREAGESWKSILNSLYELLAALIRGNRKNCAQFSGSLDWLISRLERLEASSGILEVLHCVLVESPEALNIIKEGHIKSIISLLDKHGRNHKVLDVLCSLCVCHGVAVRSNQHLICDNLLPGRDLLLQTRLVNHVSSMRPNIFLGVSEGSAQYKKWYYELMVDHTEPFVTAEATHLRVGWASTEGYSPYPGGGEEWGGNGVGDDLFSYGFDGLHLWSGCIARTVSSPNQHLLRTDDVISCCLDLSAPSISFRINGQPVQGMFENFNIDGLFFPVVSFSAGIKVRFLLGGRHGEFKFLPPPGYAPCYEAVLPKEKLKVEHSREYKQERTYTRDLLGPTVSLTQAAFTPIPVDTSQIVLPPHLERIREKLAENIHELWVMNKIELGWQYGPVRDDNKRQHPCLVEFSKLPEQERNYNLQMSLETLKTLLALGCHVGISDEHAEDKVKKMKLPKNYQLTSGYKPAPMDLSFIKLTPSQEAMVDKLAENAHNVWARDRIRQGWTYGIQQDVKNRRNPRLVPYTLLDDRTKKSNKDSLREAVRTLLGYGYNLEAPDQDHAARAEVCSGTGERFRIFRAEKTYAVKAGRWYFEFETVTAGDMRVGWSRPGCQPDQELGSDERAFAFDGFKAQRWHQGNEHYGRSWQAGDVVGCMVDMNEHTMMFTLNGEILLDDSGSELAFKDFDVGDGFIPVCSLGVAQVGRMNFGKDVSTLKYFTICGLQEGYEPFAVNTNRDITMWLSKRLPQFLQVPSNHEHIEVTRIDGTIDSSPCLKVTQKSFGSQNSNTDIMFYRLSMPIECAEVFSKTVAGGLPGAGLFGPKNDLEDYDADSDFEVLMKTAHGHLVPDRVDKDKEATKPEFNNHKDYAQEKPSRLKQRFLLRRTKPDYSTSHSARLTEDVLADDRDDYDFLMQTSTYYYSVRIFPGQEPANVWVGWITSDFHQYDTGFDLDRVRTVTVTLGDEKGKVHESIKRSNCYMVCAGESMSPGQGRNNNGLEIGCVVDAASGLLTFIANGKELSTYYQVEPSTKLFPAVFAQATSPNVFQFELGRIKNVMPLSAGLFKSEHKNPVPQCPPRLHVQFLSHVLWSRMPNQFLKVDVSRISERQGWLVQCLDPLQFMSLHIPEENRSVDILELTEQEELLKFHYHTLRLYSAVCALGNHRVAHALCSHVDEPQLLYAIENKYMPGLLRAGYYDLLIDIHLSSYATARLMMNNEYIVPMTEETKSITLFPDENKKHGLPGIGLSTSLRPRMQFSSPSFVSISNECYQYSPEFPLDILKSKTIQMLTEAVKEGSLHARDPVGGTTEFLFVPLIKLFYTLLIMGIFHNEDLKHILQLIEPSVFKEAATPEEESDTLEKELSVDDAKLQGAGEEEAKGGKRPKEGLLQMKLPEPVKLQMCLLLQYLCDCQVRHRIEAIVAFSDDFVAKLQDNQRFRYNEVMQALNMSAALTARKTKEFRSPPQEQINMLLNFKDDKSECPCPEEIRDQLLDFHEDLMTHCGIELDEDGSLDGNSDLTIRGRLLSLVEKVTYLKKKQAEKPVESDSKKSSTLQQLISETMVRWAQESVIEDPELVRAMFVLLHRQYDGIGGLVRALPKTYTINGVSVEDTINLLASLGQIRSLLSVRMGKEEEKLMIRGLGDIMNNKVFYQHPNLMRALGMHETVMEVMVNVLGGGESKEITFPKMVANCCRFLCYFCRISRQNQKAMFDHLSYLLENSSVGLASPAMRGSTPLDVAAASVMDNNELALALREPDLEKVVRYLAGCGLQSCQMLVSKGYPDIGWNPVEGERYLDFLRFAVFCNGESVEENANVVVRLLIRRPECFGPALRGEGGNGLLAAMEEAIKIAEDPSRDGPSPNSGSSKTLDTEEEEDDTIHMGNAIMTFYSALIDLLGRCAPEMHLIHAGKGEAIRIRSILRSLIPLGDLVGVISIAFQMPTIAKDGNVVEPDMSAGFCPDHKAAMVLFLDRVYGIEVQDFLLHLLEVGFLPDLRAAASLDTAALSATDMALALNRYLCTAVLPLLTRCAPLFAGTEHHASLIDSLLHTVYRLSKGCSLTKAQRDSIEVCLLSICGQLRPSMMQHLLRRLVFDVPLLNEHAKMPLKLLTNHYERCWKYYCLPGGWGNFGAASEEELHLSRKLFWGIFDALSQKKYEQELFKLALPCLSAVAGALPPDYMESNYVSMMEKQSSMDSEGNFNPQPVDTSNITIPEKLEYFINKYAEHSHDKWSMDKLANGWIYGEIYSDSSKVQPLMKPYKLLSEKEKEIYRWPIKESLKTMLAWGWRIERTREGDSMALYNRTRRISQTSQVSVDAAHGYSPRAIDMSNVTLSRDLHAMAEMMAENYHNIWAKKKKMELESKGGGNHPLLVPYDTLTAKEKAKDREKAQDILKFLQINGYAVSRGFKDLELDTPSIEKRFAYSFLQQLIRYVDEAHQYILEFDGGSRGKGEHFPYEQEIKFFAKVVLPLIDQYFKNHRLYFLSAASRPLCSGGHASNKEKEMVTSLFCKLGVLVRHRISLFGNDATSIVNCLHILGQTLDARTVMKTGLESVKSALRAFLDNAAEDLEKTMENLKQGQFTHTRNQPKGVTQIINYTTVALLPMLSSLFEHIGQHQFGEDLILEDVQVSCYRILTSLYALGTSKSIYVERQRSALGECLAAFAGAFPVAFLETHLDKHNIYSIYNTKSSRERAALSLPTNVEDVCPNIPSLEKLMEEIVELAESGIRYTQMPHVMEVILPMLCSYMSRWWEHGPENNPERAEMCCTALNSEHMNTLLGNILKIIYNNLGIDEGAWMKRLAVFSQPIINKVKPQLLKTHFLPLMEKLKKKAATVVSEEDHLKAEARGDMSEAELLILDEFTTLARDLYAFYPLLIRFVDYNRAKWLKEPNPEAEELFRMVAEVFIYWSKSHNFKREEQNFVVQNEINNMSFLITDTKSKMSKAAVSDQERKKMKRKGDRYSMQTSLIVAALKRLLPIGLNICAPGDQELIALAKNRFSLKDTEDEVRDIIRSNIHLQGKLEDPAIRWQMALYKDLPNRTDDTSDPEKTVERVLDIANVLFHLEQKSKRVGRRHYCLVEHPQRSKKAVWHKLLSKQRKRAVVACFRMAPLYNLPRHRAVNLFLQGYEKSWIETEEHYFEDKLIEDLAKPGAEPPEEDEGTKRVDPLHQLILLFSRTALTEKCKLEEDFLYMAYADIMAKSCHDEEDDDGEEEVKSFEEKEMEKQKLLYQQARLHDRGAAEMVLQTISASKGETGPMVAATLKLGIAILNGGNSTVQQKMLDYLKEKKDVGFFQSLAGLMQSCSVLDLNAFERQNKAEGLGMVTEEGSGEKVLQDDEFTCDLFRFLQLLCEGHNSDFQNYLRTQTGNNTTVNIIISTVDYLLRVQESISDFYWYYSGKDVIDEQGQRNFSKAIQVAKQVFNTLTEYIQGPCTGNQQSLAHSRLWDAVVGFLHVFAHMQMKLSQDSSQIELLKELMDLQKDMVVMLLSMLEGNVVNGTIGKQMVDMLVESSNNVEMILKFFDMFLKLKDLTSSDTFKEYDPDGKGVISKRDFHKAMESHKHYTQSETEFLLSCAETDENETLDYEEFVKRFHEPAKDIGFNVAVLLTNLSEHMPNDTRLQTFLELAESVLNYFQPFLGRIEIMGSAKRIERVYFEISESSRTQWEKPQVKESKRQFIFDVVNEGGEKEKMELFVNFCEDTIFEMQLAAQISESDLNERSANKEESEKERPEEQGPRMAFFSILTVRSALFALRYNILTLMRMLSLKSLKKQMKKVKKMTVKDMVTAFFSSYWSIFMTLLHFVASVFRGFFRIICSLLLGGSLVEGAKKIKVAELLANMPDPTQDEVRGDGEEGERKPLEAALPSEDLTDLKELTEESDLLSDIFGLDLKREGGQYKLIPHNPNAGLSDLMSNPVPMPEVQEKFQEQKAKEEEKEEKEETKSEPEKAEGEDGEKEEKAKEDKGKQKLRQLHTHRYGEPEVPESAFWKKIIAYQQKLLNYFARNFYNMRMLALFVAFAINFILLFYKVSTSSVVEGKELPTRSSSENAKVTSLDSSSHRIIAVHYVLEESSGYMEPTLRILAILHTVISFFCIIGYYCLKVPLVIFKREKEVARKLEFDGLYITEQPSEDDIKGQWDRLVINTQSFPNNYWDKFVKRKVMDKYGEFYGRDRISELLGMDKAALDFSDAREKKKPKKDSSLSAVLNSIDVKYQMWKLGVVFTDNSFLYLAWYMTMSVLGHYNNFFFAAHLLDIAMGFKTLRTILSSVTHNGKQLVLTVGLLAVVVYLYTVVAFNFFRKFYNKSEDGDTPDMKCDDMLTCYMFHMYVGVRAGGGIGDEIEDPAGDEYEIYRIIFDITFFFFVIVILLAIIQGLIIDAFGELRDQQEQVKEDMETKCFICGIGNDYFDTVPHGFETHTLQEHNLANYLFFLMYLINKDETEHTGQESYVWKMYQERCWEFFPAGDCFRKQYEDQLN
# UniProt P68106: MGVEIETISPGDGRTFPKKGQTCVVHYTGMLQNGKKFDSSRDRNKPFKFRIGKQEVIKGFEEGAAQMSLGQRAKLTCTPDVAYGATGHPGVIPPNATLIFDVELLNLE
# These are yes or no findings as the source states them, for the method shown. Binding seen in cells or lysates may run through a third protein. Some entries that bind do so weakly or less than the wild type.
# Biological target: ryanodine receptor 2 (RyR2), human (human (endogenous in pulmonary arteries)) (UniProt Q92736)
# Assay: co-IP; PA homogenates (200 ug) / SR membrane preparations; RyR2 precipitated with anti-RyR2 antibody and protein-G at 4 °C overnight, blotted with anti-RyR2 and anti-FKBP12.6; tissue from normoxic and chronic-hypoxia mice (PA and mesentery arteries), also after FK506 (0.05 or 1 mg/kg/d), S107 (20 mg/kg/d) or RISP knockdown in vivo; human PAs from PH patients and non-PH controls
substance,measurement,value
"FK506 binding protein 12.6 (FKBP12.6), human (from UniProt P68106 1-108)",binding,binds
